Test results taken from patent US20060100154A1 (YEDA RESEARCH AND DEVELOPMENT CO, priority 2005, published 2006).

Tests used:
[1] = peptide synthesis; details: conjugation step
[2] = general procedure: Fmoc solid-phase peptide synthesis; Rink amide resin; PyBOP; details: whole synthesis

Substance | conjugation yield [1] [%] | isolated yield ([2]; scale of the general procedure 25 μmol) [%] | crude HPLC purity ([2]; analytical HPLC (RP-18 and C4), scale 25 μmol) [%]
[D-Lys^6(N-(2-chloro-1,4-naphthoquinonyl)-β-alanyl)]GnRH | 60 | 83 | 
[D-Lys^6]GnRH |  |  | >90
